We go through 3 molecules from article doi:10.1101/2019.12.11.872606.

Protein sequences, listed by entry. Tags and fused reporters are not part of them. Residues count along the entry.
UniProt Q9Z0R4: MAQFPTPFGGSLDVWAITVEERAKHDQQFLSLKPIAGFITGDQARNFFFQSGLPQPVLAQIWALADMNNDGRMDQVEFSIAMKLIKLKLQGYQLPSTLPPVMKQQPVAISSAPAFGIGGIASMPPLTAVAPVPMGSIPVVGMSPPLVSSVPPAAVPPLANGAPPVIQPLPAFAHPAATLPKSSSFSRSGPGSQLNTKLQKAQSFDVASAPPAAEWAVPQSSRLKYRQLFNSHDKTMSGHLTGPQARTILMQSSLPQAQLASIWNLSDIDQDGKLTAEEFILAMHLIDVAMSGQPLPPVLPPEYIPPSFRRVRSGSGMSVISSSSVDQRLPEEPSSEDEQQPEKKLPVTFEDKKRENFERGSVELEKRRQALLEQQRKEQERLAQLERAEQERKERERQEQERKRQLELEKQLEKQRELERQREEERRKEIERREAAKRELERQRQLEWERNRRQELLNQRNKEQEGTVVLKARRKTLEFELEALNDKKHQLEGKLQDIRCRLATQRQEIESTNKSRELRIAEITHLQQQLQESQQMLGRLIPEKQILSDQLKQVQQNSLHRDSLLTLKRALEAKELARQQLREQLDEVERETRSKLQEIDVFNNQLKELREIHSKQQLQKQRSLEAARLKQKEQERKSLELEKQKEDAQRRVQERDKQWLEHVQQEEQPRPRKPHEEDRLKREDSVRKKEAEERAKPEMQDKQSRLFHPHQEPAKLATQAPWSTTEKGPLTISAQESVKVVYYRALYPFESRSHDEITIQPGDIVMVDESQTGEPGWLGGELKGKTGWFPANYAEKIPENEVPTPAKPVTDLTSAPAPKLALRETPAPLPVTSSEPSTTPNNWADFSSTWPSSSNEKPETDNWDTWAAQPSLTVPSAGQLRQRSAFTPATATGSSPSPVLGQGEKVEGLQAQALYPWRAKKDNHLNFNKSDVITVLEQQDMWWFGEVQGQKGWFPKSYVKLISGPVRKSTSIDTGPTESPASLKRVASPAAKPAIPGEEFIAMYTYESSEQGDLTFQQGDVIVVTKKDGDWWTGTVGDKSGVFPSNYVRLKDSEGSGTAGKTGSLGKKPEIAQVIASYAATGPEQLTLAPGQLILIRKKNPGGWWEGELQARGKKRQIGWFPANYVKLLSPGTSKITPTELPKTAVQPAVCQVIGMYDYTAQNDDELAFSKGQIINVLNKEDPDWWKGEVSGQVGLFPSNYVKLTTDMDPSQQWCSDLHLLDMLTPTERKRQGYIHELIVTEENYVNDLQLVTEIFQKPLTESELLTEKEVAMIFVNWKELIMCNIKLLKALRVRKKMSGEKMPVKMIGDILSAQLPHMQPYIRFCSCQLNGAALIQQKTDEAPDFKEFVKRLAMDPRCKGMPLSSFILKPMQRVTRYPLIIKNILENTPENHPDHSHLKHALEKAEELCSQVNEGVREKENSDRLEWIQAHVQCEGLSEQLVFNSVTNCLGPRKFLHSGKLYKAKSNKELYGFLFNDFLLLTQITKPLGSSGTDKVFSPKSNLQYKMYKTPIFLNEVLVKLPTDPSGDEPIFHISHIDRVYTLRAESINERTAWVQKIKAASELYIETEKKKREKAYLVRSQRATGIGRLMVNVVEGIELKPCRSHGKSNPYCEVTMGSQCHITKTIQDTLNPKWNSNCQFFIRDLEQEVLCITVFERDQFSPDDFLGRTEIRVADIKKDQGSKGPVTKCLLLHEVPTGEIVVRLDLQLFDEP
UniProt Q8C0T5: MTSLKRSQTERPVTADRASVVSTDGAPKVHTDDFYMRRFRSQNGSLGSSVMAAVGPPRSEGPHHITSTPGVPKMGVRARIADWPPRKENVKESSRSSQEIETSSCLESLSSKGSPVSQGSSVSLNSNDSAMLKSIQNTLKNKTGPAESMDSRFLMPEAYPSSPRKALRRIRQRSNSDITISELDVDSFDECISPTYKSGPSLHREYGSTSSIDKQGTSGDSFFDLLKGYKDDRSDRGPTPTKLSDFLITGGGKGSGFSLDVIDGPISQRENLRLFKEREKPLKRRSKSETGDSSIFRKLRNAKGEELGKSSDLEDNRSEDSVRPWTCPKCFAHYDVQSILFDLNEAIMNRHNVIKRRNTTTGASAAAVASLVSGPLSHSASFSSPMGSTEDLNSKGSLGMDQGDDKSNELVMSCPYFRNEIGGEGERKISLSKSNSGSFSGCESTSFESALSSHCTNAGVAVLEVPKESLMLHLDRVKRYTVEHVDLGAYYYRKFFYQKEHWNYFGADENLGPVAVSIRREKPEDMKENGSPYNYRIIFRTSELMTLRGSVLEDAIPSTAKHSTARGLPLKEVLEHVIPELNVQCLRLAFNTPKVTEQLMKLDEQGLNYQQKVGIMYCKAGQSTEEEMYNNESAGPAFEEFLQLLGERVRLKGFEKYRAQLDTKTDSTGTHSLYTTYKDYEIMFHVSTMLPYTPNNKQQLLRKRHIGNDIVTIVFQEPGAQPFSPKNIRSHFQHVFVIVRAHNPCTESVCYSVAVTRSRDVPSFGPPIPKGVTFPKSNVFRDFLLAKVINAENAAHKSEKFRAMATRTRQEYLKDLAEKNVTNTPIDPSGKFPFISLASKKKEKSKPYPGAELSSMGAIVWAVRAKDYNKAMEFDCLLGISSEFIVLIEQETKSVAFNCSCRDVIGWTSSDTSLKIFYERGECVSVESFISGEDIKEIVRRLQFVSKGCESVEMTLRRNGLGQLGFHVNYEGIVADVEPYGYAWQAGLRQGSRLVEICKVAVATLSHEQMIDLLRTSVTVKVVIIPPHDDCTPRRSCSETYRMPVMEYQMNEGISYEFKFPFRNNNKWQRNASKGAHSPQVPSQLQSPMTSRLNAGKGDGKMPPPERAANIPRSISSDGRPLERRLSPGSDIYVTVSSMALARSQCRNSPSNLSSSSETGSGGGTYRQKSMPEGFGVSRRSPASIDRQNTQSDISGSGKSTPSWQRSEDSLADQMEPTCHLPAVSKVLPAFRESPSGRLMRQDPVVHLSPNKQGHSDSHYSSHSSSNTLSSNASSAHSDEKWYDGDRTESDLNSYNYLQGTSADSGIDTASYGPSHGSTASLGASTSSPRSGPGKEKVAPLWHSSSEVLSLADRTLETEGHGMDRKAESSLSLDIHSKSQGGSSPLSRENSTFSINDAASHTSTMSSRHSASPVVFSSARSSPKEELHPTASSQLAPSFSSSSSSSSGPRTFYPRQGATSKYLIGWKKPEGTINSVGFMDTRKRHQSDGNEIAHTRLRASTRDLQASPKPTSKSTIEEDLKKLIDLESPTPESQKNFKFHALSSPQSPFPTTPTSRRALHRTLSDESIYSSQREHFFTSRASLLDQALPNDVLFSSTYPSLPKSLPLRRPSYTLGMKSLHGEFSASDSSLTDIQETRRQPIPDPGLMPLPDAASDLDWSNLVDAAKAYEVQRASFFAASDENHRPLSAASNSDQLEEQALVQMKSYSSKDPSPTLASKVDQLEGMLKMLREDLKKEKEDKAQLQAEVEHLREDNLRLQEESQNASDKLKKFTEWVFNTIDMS
UniProt Q9ERC8, residues 18-2013: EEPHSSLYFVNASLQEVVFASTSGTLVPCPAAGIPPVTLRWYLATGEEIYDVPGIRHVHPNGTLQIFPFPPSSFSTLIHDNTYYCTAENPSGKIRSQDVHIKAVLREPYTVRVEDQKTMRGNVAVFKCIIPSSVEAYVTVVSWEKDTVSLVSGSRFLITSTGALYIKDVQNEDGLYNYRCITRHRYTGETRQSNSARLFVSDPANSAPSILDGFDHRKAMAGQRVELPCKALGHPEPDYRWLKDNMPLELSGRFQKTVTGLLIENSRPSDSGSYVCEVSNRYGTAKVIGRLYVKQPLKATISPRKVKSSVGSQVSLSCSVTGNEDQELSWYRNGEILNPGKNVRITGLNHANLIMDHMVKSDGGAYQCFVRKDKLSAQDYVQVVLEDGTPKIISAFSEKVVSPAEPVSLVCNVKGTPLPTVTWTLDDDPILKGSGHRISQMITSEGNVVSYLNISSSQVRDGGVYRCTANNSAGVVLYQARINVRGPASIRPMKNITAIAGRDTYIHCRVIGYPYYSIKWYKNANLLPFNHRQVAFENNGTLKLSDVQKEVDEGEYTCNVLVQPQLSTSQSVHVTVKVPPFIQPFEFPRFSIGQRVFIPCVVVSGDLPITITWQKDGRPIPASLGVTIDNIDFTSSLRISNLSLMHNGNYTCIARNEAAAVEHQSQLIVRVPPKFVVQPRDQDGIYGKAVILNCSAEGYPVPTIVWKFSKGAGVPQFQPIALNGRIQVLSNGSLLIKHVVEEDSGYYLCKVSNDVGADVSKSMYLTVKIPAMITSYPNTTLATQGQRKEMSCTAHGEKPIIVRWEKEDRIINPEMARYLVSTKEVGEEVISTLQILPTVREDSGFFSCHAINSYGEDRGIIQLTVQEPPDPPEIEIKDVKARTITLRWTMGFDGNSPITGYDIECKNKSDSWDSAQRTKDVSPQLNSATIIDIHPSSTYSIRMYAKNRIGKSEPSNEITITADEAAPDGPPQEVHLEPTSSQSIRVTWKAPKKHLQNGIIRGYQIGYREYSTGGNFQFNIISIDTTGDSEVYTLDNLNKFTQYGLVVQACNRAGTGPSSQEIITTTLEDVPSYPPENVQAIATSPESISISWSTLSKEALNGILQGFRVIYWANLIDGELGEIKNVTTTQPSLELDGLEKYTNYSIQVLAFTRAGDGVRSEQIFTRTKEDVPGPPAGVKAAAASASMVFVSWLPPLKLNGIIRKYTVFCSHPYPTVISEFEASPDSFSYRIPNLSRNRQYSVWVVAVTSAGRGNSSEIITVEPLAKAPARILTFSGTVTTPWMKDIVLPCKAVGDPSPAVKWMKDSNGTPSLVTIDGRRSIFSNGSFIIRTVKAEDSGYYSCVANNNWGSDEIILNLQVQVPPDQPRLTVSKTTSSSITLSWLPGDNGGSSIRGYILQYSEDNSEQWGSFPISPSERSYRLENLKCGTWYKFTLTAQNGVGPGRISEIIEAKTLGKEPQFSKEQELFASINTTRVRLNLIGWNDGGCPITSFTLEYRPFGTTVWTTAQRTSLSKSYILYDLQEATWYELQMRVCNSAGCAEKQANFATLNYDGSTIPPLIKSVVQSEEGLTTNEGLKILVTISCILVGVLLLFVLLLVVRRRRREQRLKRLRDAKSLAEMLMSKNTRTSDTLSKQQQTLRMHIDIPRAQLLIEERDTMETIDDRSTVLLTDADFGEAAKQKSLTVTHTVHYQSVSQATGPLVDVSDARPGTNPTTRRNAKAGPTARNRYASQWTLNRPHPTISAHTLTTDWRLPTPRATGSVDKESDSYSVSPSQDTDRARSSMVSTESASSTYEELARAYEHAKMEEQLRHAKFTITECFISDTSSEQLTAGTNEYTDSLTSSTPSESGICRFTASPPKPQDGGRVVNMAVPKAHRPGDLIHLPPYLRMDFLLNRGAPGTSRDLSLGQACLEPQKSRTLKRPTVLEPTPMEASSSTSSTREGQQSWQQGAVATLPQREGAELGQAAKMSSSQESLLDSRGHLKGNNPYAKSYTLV

The target in assay [1] is Dyrk1a (endogenous, mouse) (mouse (endogenous in cortical neurons and adult cortex)) (UniProt Q61214). Briefly: proximity ligation.
Assay [2] has the same target. Briefly: co-IP.
For assay [3] the target is unchanged. The assay is described as follows: co-IP. This is another data set of the same source.
The target of assay [4] is Itsn1 (endogenous, mouse cortical neurons) (mouse (endogenous in primary cortical neurons)) (UniProt Q9Z0R4). The assay is described as follows: proximity ligation.

No constants are given. Whether binding was seen depends on the method and setting. Binding seen in cells or lysates may run through a third protein. Some results given as binding are weak or reduced against the parent protein; the word gives no strength.

For “Sipa1l1 (endogenous, mouse cortical neurons) (from UniProt Q8C0T5 1-1782)”, in assay [1], the binding result is on record as “binds”.

With “Dscam (endogenous, mouse) (from UniProt Q9ERC8 18-2013)”, the binding entry in assay [2] and in assay [3] was “binds” each time.

B1: Dlgap1 (endogenous, mouse cortical neurons) (protein, UniProt Q9D415 1-992)
chain: MKGLSGSRSHHHGITCEAACDSLSHHSDHKPYLLSPVDHHPADHPYYTQRNSFQAECVGPFSDPLASSTFPRRHYTSQQELKDESALVPRTLATKANRLPTNLLDQFERQLPLSRDGYHTLQYKRTAVEHRSDSPGRIRHLVHSVQKLFTKSHSLEGPSKGSVNGGKASPDESQTLRYGKRSKSKERRSESKARSNASNASPTSPSWWSSDDNLDGDMCLYHTPSGVMTMGRCPDRSASQYFMEAYNTISEQAVKASRSNNDIKCSTCANLPVTLDAPLLKKSAWSSTLTVSRAREVYQKASVNMDQAMVKSEACQQERSCQYLQVPQDEWSGYTPRGKDDEIPCRRMRSGSYIKAMGDEDSGDSDTSPKPSPKVAARRESYLKATQPSLTELTTLKISNEHSPKLQIRSHSYLRAVSEVSINRSLDSLDPAGLLTSPKFRSRNESYMRAMSTISQVSEMEVNGQFESVCESVFSELESQAVEALDLPLPGCFRMRSHSYVRAIEKGCSQDDECVSLRSSSPPRTTTTVRTIQSSTGVIKLSSAVEVSSCITTYKKTPPPVPPRTTTKPFISITAQSSTESAQDAYMDGQGQRGDMISQSGLSNSTESLDSMKALTAAIEAANAQIHGPASQHMGSNAAAVTTTTTIATVTTEDRKKDFKKNRCLSIGIQVDDAEEPEKMAESKTSNKFQSVGVQVEEEKCFRRFTRSNSVTTAVQADLDFHDNLENSLESIEDNSCPGPMARQFSRDASTSTVSIQGSGNHYHACAADDDFDTDFDPSILPPPDPWIDSITEDPLEAVQRSVCHRDGHWFLKLLQAERDRMEGWCKLMEREERENNLPEDILGKIRTAVGSAQLLMAQKFYQFRELCEENLNPNAHPRPTSQDLAGFWDMLQLSIENISMKFDELHQLKANNWKQMDPLDKKERRAPPPVPKKPAKGPAPLIRERSLESSQRQEARKRLMAAKRAASVRQNSATESAESIEIYIPEAQTRL
As for B1, the binding entry in assay [4] is given as “binds”.
